From PubChem BioAssay AID1487 (National Center for Advancing Translational Sciences (NCATS), 2009) come the findings set out here.

The other results are listed elsewhere or left out. Further columns of the screen follow, without active or inactive calls. Compounds called inactive in the main read-out are mostly missing here. The note in brackets gives the kind of curve behind each potency; many fits are weak.

What is called AC50 is the concentration at which the activity in the assay is half-maximal.

The nature of this assay: qHTS Assay for Modulators of Lamin A Splicing. Particulars: HeLa LMNA splicing GFP/RFP minigene ratio, 48 h. The method in brief:
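S3 HeLa cells stably expressing lamin A-EGFP splicing minigene plus DsRed2, 600 cells/well, 48 h compound exposure at 37C. Laser-scanning cytometry; analysed as GFP (500-530 nm)/RFP (575-640 nm) total intensity ratio; 0.5% DMSO vehicle.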
For orientation: Quantitative high-throughput screening tests each substance at several concentrations.

The mark [1] stands for this setting: measured here: RFP viability control channel.
Setting [2] is: measured here: GFP splicing reporter channel.

As to `O=C(/C=C/NNC(=O)c1cccc(Br)c1)c1cccc(Br)c1`, the half-maximal activity concentration (AC50) under setting [1] was 22.4 µM [rising, single point].
Regarding `Cc1ccc2oc(-c3ccco3)cc(=O)c2c1`, the half-maximal activity concentration (AC50) under setting [2] is 5.62 µM [rising, single point].
On to `Cc1ccc(C(=O)N2CCCC(C(=O)c3cc(F)ccc3F)C2)s1` (stereo unspecified), for which the AC50 under setting [1] was 28.2 µM [falling, single point].
Regarding `COc1ccc(S(=O)(=O)N2CCOCC2)cc1NC(=O)CN1CCC(Cc2ccccc2)CC1`, the AC50 is 11.2 µM [rising, single point] under setting [2] and 14.1 µM [rising, partial curve] under setting [1].
Take `COc1ccc(C(=O)Nc2ccc(Cc3ccncc3)cc2)cc1Br`: the AC50 is 35.5 µM [rising, single point] under setting [2] and 12.6 µM [rising, single point] under setting [1].
As for `Cc1ccc(-c2nn(-c3ccccc3)cc2NC(=O)c2ccccc2)cc1`, the half-maximal activity concentration (AC50) is 31.6 µM [rising, single point] under setting [2] and 31.6 µM [rising, single point] under setting [1].
Consider `O=C(NNC(=S)NCc1ccccc1)c1ccc(OC(F)F)cc1`, for which the half-maximal activity concentration (AC50) is 14.1 µM [rising, single point] under setting [2] and 35.5 µM [rising, single point] under setting [1].
Take `CN(c1ccccc1)S(=O)(=O)c1cc(C(=O)OCC(=O)N2CCN(C(=O)c3ccco3)CC2)ccc1Cl`: under setting [2], the concentration at half-maximal activity (AC50) is 0.0355 µM [falling, full curve, poor fit].
Still for that read-out and setting: under `Cc1ccc(C)c(N2CCN(S(=O)(=O)c3ccc(C(=O)N(C)C)s3)CC2)c1` stands 0.00316 µM [falling, full curve, poor fit].
Take `CCC(C)(C)C1CCc2c(sc(N)c2C(N)=O)C1` (stereo unspecified): the AC50 under setting [1] is 25.1 µM [rising, single point].
`CCC(=O)N1CCN(c2nc3ccccc3s2)CC1`: the concentration at half-maximal activity (AC50) by setting is: under setting [2], 12.6 µM [rising, partial curve, poor fit]; under setting [1], 14.1 µM [rising, partial curve].
On to `Nc1nc2ccc(C(=O)NC3CCCCC3)cc2s1`, for which, under setting [1], the concentration at half-maximal activity (AC50) is 10 µM [rising, partial curve, poor fit].
Regarding `Clc1ccc(CN(Cc2ccccc2)C(c2cccs2)c2nnnn2C2CCCC2)cc1` (stereo unspecified), the AC50 under setting [2] is 14.1 µM [rising, partial curve] and the AC50 under setting [1] is 31.6 µM [rising, single point].
As for `COC(=O)c1c(NC(=O)CSc2nnc(-c3ccco3)n2Cc2ccccc2)sc(C)c1C`, the AC50 under setting [2] was 20 µM [rising, single point].
On to `COc1ccc(-c2nsc3c(N4CCN(C(=O)c5ccco5)CC4)ncnc23)cc1`, for which the half-maximal activity concentration (AC50) is 14.1 µM [falling, single point] under setting [2] and 15.8 µM [falling, single point] under setting [1].
For `CCCOc1ccc(CC(=O)NNC(=S)Nc2ccccc2)cc1Br`, the AC50 reads like this: under setting [2], 35.5 µM [rising, single point]; under setting [1], 35.5 µM [rising, single point].
For the compound `CC(=O)c1cccc(NC(=O)CN2C(=O)CC(c3ccc(C)cc3C)=Nc3ccccc32)c1`, the concentration at half-maximal activity (AC50) under setting [2] was 0.282 µM [rising, full curve] and the half-maximal activity concentration (AC50) under setting [1] was 0.447 µM [rising, full curve].
Take `Cc1nn(C(=O)CCCn2cc([N+](=O)[O-])cn2)c(C)c1Cl`: under setting [2], the AC50 was 0.891 µM [rising, full curve, poor fit].
Take `CCCCN(CC)CCCNC(=O)c1cn(CC)c2ccc(S(=O)(=O)N3CCc4ccccc4C3)cc2c1=O`: under setting [1], the concentration at half-maximal activity (AC50) is 0.316 µM [rising, full curve, poor fit].
Consider `COc1cccc(-c2nnc(NC(=O)c3ccc4ncsc4c3)o2)c1`, for which the AC50 under setting [1] was 8.91 µM [rising, partial curve].
For the compound `CCOC(=O)CNC(=S)n1cnc(N)n1`, the AC50 under setting [1] is 35.5 µM [falling, single point].
As for `CC(=O)Nc1cc[n+](C(C)C(=O)c2ccc(Br)cc2)cc1` (stereo unspecified), under setting [1], the AC50 is 12.6 µM [falling, single point].
Still for that read-out and setting: under `O=C(Nc1ccc(Br)cc1)Nc1ccccc1Cl` stands 0.224 µM [falling, full curve].
As for `CCCC1N=C2c3ccccc3N=C(SCC(=O)NCCc3ccc(Cl)cc3)N2C1=O` (stereo unspecified), under setting [1], the half-maximal activity concentration (AC50) was 31.6 µM [falling, single point].
For `CC[N+]1=C(C)C(C)(C)c2cc(C)ccc21`, the AC50 reads like this: under setting [2], 20 µM [falling, partial curve, poor fit]; under setting [1], 14.1 µM [rising, single point].
`COC(=O)C1=C(C)N(CCc2ccccc2)C(=O)/C1=C\c1ccco1`: under setting [1], the concentration at half-maximal activity (AC50) is 12.6 µM [rising, single point].
On the same count and under the same terms, for `COc1cc(/C=N/NC(=O)CCn2c3ccccc3c3ccccc32)ccc1O` the value was 12.6 µM [rising, single point].
Same read-out and setting: under `O=C(O)c1ccc(/C=N/NC(=O)c2cc(-c3ccc4c5c(cccc35)CC4)n[nH]2)cc1` stands 35.5 µM [rising, single point]; under `CCOC(=O)C(=Cc1ccccc1OC)C(=O)OCC`, 35.5 µM [falling, single point].
As for `CCCOC(=O)CSc1nnc(-c2ccccc2)o1`, the half-maximal activity concentration (AC50) runs as follows: under setting [2], 0.0251 µM [falling, full curve, poor fit]; under setting [1], 0.01 µM [falling, full curve].
Turning to `Cc1ccccc1N1CC(c2nnc(NC(=O)c3ccco3)s2)CC1=O` (stereo unspecified), the half-maximal activity concentration (AC50) under setting [2] was 0.316 µM [falling, full curve, poor fit].
Regarding `CC(=O)Nc1ccc(NC(=O)Cn2nc([N+](=O)[O-])c(Br)c2C)cc1`, the AC50 under setting [2] was 0.00447 µM [falling, full curve, poor fit].
Regarding `O=C(NCCSCc1ccccc1)c1ccc(Cl)c(S(=O)(=O)N2CCOCC2)c1`, the concentration at half-maximal activity (AC50) by setting is: under setting [2], 10 µM [rising, partial curve, poor fit]; under setting [1], 15.8 µM [rising, partial curve].
Consider `C[C@H]1CC2[C@@H]3CCC4=CC(=O)C=C[C@]4(C)[C@@]3(Cl)[C@@H](O)C[C@]2(C)[C@@]1(O)C(=O)CO` (stereo partly specified), for which the AC50 runs as follows: under setting [2], 0.00562 µM [falling, full curve, poor fit]; under setting [1], 0.00447 µM [falling, full curve, poor fit].
As for `O=C(COC(=O)c1ccc(F)cc1F)Nc1ncccn1`, under setting [2], the concentration at half-maximal activity (AC50) is 0.282 µM [rising, full curve, poor fit].
Turning to `CCOc1ccc(OCC(=O)NCCS(=O)(=O)N2CCN(c3cccc(Cl)c3)CC2)cc1`, the concentration at half-maximal activity (AC50) is 2.51 µM [falling, full curve, poor fit] under setting [2] and 1.41 µM [falling, full curve, poor fit] under setting [1].
As to `COc1ccc(C(O)c2nccc3cc(OC)c(OC)cc23)cc1OC` (stereo unspecified), the concentration at half-maximal activity (AC50) under setting [2] was 0.00891 µM [falling, full curve, poor fit].
For `O=C(COc1ccccc1-c1ccccc1)N/N=C/c1ccc2ccccc2c1`, the AC50 under setting [1] was 0.794 µM [rising, full curve].
Turning to `O=[N+]([O-])c1ccc(COc2ccccc2/C=N/O)cc1`, the concentration at half-maximal activity (AC50) under setting [2] is 12.6 µM [rising, single point] and the AC50 under setting [1] was 31.6 µM [rising, single point].
For the compound `CCC(C)c1ccc(NC(=O)C2CCN(c3ccc(C(F)(F)F)cn3)CC2)cc1` (stereo unspecified), under setting [1], the concentration at half-maximal activity (AC50) was 11.2 µM [rising, partial curve, poor fit].
In the case of `Cn1c(=NC(=O)C2CCN(S(=O)(=O)c3cccs3)CC2)sc2ccccc21`, the AC50 reads like this: under setting [2], 4.47 µM [rising, partial curve]; under setting [1], 2.82 µM [rising, full curve].
As to `C=CCSc1nnc(CSc2nc3sc4c(c3c(=O)[nH]2)CCCC4)n1-c1ccccc1`, the concentration at half-maximal activity (AC50) was 15.8 µM [rising, single point] under setting [2] and 10 µM [rising, partial curve] under setting [1].
For the compound `CCn1c2ccccc2c2cc(NC(=O)COC(=O)c3ccccc3O)ccc21`, the AC50 by setting is: under setting [2], 15.8 µM [falling, partial curve, poor fit]; under setting [1], 11.2 µM [falling, partial curve].
`COC(=O)CSc1nnc(CNC(=O)c2cc(OC)cc(OC)c2)n1-c1ccc(F)cc1`: the AC50 reads like this: under setting [2], 0.0398 µM [falling, full curve, poor fit]; under setting [1], 0.00316 µM [falling, full curve, poor fit].
Take `CCCNC(=O)N1CCN(c2nc(C(C)C)c3c(c2C#N)CC(C)(C)OC3)CC1`: under setting [1], the half-maximal activity concentration (AC50) was 6.31 µM [rising, partial curve].
With `Cc1ccc(Sc2ncccc2COC(=O)Nc2c(C)cccc2C)cc1`, the AC50 reads like this: under setting [2], 35.5 µM [rising, single point]; under setting [1], 35.5 µM [rising, single point].
On to `CC1CCN(C(=O)c2cc3nc(-c4ccccc4)cc(-c4ccccc4)n3n2)CC1`, for which the AC50 under setting [1] is 22.4 µM [rising, single point].
Take `Cc1ccc(NC(=O)CN(C)CC(=O)Nc2ccccc2C#N)cc1`: under setting [1], the AC50 was 15.8 µM [falling, single point].
On the same count and under the same terms, under `O=C(COC(=O)c1cc2c(s1)CCC2)Nc1ccc(F)cc1` stands 0.126 µM [falling, full curve].
Regarding `Cc1ccccc1NS(=O)(=O)c1ccc(N2CCCC2=O)cc1`, the concentration at half-maximal activity (AC50) is 17.8 µM [rising, single point] under setting [2] and 10 µM [rising, partial curve] under setting [1].
As to `C=C1C[C@@]23C[C@]1(O)CC[C@@H]2[C@]12C=C[C@@H](O)[C@](C)(C(=O)O1)[C@H]2[C@H]3C(=O)O`, the AC50 by setting is: under setting [2], 3.16 µM [falling, single point]; under setting [1], 3.16 µM [falling, single point].
In the case of `Nc1nc(CN2CCN(c3ccccc3)CC2)nc(Nc2ccc(Cl)cc2)n1`, under setting [2], the AC50 was 22.4 µM [rising, partial curve, poor fit].
Regarding `Cn1cc(Br)c(C(=O)NNC(=O)Nc2ccccc2C(F)(F)F)n1`, under setting [1], the half-maximal activity concentration (AC50) was 1.12 µM [falling, full curve, poor fit].
For the compound `CCCCNC(=O)CCC(=O)Nc1ccc2nc(N3CCC(C)CC3)cc(C)c2c1`, the concentration at half-maximal activity (AC50) under setting [2] was 11.2 µM [falling, single point].
